Data taken from PMC8204981, “Helicobacter pylori GmhB enzyme involved in ADP-heptose biosynthesis pathway is essential for lipopolysaccharide biosynthesis and bacterial virulence” (Virulence, 2021).
These are yes or no findings as the source states them, for the method shown. Sequences can lack the tags named with a protein.

Legend:
[1] = target: HP0860 protein (D-glycero-D-manno-heptose-1,7-bisphosphate phosphatase, GmhB) of Helicobacter pylori 26,695, recombinant with a 6 × His tag (Helicobacter pylori 26,695) (UniProt O25531); assay: AUC; sedimentation velocity ultracentrifugation, Beckman Optima XL-A Analytical Ultracentrifuge; both purified
[2] = target: HP0860 protein (D-glycero-D-manno-heptose-1,7-bisphosphate phosphatase, GmhB) of Helicobacter pylori 26,695, recombinant with a 6 × His tag (Helicobacter pylori 26,695) (UniProt O25531); assay: SEC; gel filtration under non-denaturing conditions, HiLoad 16/600 Superdex 200 pg column, AKTA FPLC, 4°C, 20 mM HEPES (pH 8.0), 10 mM MgCl2, 10 mM KCl; native molecular weight against protein standards; both purified

B1: HP0860 protein (D-glycero-D-manno-heptose-1,7-bisphosphate phosphatase, GmhB) of Helicobacter pylori 26,695, recombinant with a 6 × His tag (enzyme, UniProt O25531 1-173)
chain: MNTNKALFLDRDGIINIDKGYVSQKEDFEFQKGIFELLKHAKSLGYKLLLITNQSGINRGYYTLKDFEQLTQYLQESLFKELGFNLDGIYFCRHAPEENCACRKPKPSLILQAAKEHQICLEQSFMIGDKESDMLAGLNAKVKNNLLLIQNPLKTPHSWIQCKDFKEMIDLIK
binding [1]: no binding | binding [2]: no binding
